Data taken from PubChem BioAssay AID330 (DTP/NCI, 2004).
The list shows only some results of the screen, not a fair sample: it gathers tests that were run many times, whatever their T/C, doses with no T/C, and many T/C values between a quarter and a half above the control. Other doses and runs of a compound stand elsewhere. T/C: endpoint of the treated group in % of that of the vehicle group. Some entries give survivors of the animals treated and no T/C: the source holds a T/C of zero for them, seemingly a mark for toxic or unscored doses. Some survivor counts are full or nearly so, which does not show that the dose was tolerated: the source hardly ever lists a survival T/C far under the control, and the zero likely stands for such cases as well. Counts of survivors are from the toxicity check (mostly the fifth day) where no day follows; animals may have died later. Schedule codes are those of the source, read here as Q, the interval in days (D) or hours (H), X, the number of doses. Some entries hold several experiments; the values are given in rising order. Some schedules carry Z or #; the key to these is not given. Some molecules as drawn cover several salts, stereoisomers or complexes of the source; a dose is that of the sample tested. Counts like (3×) give the number of equal values in this list. For survival time, the PubChem record calls one and a half times the control and up active, and a quarter to a half above the control has no call in these data; cut-offs in other NCI protocols can differ. Some T/C values are followed by the survivors on the day toxicity was checked, most often the fifth; where none is given, no animal had died by that day.

Tested on: P388 leukemia ip, CD2F1 mice, survival T/C
Experiment: NCI In Vivo Anticancer Drug Screen. Data for tumor model P388 Leukemia (intraperitoneal) in CD2F1 (CDF1) mice
Conditions: T/C endpoint: median survival time, higher T/C = longer survival
[1] = dose: 400.0 mg/kg/injection, schedule: Q01DX009 (ip), vehicle: saline with Tween-80
[2] = dose: 200.0 mg/kg/injection, schedule: Q01DX005 (ip), vehicle: saline with Tween-80
[3] = dose: 400.0 mg/kg/injection, schedule: Q04DX003 (ip), vehicle: saline
[4] = dose: 240.0 mg/kg/injection, schedule: Q01DX005 (ip), vehicle: saline with Tween-80
[5] = dose: 50.0 mg/kg/injection, schedule: Q01DX005 (ip), vehicle: Klucel (hydroxypropylcellulose) (HPC)
[6] = dose: 100.0 mg/kg/injection, schedule: Q01DX005 (ip), vehicle: Klucel (hydroxypropylcellulose) (HPC)
[7] = dose: 200.0 mg/kg/injection, schedule: Q01DX005 (ip), vehicle: Klucel (hydroxypropylcellulose) (HPC)
[8] = dose: 200.0 mg/kg/injection, schedule: Q04DX003 (ip), vehicle: saline
[9] = dose: 50.0 mg/kg/injection, schedule: Q01DX009 (ip), vehicle: saline
[10] = dose: 100.0 mg/kg/injection, schedule: Q01DX009 (ip), vehicle: saline
[11] = dose: 200.0 mg/kg/injection, schedule: Q01DX009 (ip), vehicle: saline
[12] = dose: 100.0 mg/kg/injection, schedule: Q01DX009 (ip), vehicle: saline with Tween-80
[13] = dose: 200.0 mg/kg/injection, schedule: Q01DX009 (ip), vehicle: saline with Tween-80

In the case of `OCC1OC(n2cnc3c(NCc4ccco4)ncnc32)C(O)C1O` (stereo not drawn), the survivor count [1] is reported as 2 of 6.

`CC(C)NC(=O)OCc1c(COC(=O)NC(C)C)c2n(c1-c1ccc(Cl)c(Cl)c1)CCS2=O` (stereo not drawn) was tested, and the survivor count [2] was 6 of 6.

With `COc1cc2cnc(-c3ccncc3)cc2cc1OC` the survivor count [3] was 0 of 6.

In the case of `Cc1ccc(NC(=O)Cc2nc3ccccc3s2)c(C)c1`, the survivor count [4] is reported as 0 of 6.

With `CCN(CC)C(=O)N1CC1` the survivor count (dose: 400.0 mg/kg/injection, schedule: Q04DX002 (ip), vehicle: saline) was 0 of 6.

`C=C(Cl)C(=NC(C)(C)C)Nc1ccc(Cl)cc1` was tested, and the survivor count [5] was 1 of 5, the survivor count [6] was 0 of 5 and the survivor count [7] was 0 of 5 (2×).

With `O=C1C=C(Cl)C(=O)C2=C1CCCC2` the survivor count (dose: 12.5 mg/kg/injection, schedule: Q04DX002 (ip), vehicle: saline with Tween-80) was 5 of 6, the survivor count (dose: 25.0 mg/kg/injection, schedule: Q04DX002 (ip), vehicle: saline with Tween-80) was 3 of 6 and 4 of 6 and the survivor count (dose: 50.0 mg/kg/injection, schedule: Q04DX002 (ip), vehicle: saline with Tween-80) was 0 of 6. The survivor count (dose: 100.0 mg/kg/injection, schedule: Q04DX002 (ip), vehicle: saline with Tween-80) was 0 of 6, the survivor count (dose: 200.0 mg/kg/injection, schedule: Q04DX002 (ip), vehicle: saline with Tween-80) was 0 of 6 and the survivor count (dose: 400.0 mg/kg/injection, schedule: Q04DX002 (ip), vehicle: saline with Tween-80) was 0 of 6.

With `CCOC(=O)c1ccc(N=C/C(Cl)=C(/Cl)C(=O)O)cc1` the survivor count (dose: 25.0 mg/kg/injection, schedule: Q01DX009 (ip), vehicle: Klucel (hydroxypropylcellulose) (HPC)) was 5 of 6, the survivor count (dose: 50.0 mg/kg/injection, schedule: Q01DX009 (ip), vehicle: Klucel (hydroxypropylcellulose) (HPC)) was 2 of 6 and the survivor count (dose: 50.0 mg/kg/injection, schedule: Q01DX009 (ip), vehicle: other) was 3 of 6. For the same compound, the survivor count (dose: 100.0 mg/kg/injection, schedule: Q01DX009 (ip), vehicle: other) was 0 of 6 and the survivor count (dose: 200.0 mg/kg/injection, schedule: Q01DX009 (ip), vehicle: other) was 0 of 6.

For `CC(C)(C)c1cc(C(C)(C)C)c2[n+]([O-])ssc1-2`, the survivor count [4] was 0 of 6.

In the case of `O=C1CSC(c2ccccc2F)N1c1ncccn1` (stereo not drawn), the T/C [7] is reported as 135 % of control and the survivor count (dose: 400.0 mg/kg/injection, schedule: Q01DX005 (ip), vehicle: Klucel (hydroxypropylcellulose) (HPC)) is reported as 0 of 6.

For `COc1cc(C[C@H]2c3cc(OC)c(OC)cc3CCN2C)c(Oc2cc3c(cc2OC)-c2c(OC)c(OC)cc4c2[C@H](C3)N(C)CC4)cc1OC`, the survivor count (dose: 160.0 mg/kg/injection, schedule: Q01DX009 (ip), vehicle: distilled water + Tween-80) was 6 of 6, the survivor count (dose: 320.0 mg/kg/injection, schedule: Q01DX009 (ip), vehicle: distilled water + Tween-80) was 0 of 6 and the survivor count [3] was 10 of 10.

For `O=C1NC(=O)C(=O)N1`, the survivor count [8] was 6 of 6.

With `COc1cccc2c1OC1(N3CCOCC3)CCCCC1C2C[N+](=O)[O-]` (stereo not drawn) the survivor count [1] was 5 of 6.

For `O=C(Nc1ccc(Cc2ccc(NC(=O)C34CC5CC(CC(C5)C3)C4)cc2)cc1)C12CC3CC(CC(C3)C1)C2`, the survivor count [2] was 5 of 5.

With `COc1ccc2nc3ccccc3c(NCCCCCCNc3c4ccccc4nc4ccc(OC)cc34)c2c1` the T/C (dose: 7.5 mg/kg/injection, schedule: Q01DX009 (ip), vehicle: other) was 125 % of control, the survivor count (dose: 10.0 mg/kg/injection, schedule: Q01DX009 (ip), vehicle: other) was 2 of 4 and the survivor count (dose: 10.0 mg/kg/injection, schedule: Q## X009 (ip), vehicle: lactic acid) was 2 of 6. The survivor count (dose: 15.0 mg/kg/injection, schedule: Q01DX009 (ip), vehicle: other) was 0 of 4 and the survivor count (dose: 20.0 mg/kg/injection, schedule: Q01DX009 (ip), vehicle: other) was 0 of 4.

For `CC(c1ccccc1)[n+]1ccccc1C1OCCO1` (stereo not drawn), the survivor count (dose: 100.0 mg/kg/injection, schedule: Q04DX003 (ip), vehicle: saline) was 0 of 6, the survivor count [8] was 0 of 6 and the survivor count [3] was 0 of 6.

In the case of `CCCCCCCCCCCCCCCCCC[N+]1(CC)CCCCC1`, the survivor count (dose: 0.09 mg/kg/injection, schedule: Q01DX009 (ip), vehicle: saline) is reported as 6 of 6, the T/C (dose: 0.39 mg/kg/injection, schedule: Q01DX009 (ip), vehicle: saline) is reported as 125 % of control [4 of 6 alive] and the survivor count (dose: 0.78 mg/kg/injection, schedule: Q01DX009 (ip), vehicle: saline) is reported as 5 of 6. For the same compound, the survivor count (dose: 1.56 mg/kg/injection, schedule: Q01DX009 (ip), vehicle: saline) was 3 of 6, the survivor count (dose: 3.12 mg/kg/injection, schedule: Q01DX009 (ip), vehicle: saline) was 0 of 6 and the survivor count (dose: 6.25 mg/kg/injection, schedule: Q01DX009 (ip), vehicle: saline) was 0 of 6. The survivor count (dose: 12.5 mg/kg/injection, schedule: Q01DX009 (ip), vehicle: saline) was 1 of 6, the survivor count [9] was 0 of 6 and the survivor count [10] was 0 of 6. For the same compound, the survivor count [11] was 0 of 6.

With `O=CC1=CSC(=C2SC=CS2)S1` the survivor count (dose: 120.0 mg/kg/injection, schedule: Q01DX005 (ip), vehicle: Klucel (hydroxypropylcellulose) (HPC)) was 3 of 6 and the survivor count (dose: 240.0 mg/kg/injection, schedule: Q01DX005 (ip), vehicle: Klucel (hydroxypropylcellulose) (HPC)) was 0 of 6.

In the case of `CCOCCC(=NC(C)(C)C)Nc1ccccc1C`, the survivor count [11] is reported as 0 of 6.

With `O=NNc1c2ccccc2nc2ccccc12` the survivor count (dose: 1.56 mg/kg/injection, schedule: Q01DX009 (ip), vehicle: water) was 0 of 6, the survivor count (dose: 3.12 mg/kg/injection, schedule: Q01DX009 (ip), vehicle: water) was 3 of 6 and the survivor count (dose: 6.25 mg/kg/injection, schedule: Q01DX009 (ip), vehicle: water) was 3 of 6. For the same compound, the survivor count (dose: 12.5 mg/kg/injection, schedule: Q01DX009 (ip), vehicle: water) was 0 of 6 and the survivor count (dose: 25.0 mg/kg/injection, schedule: Q01DX009 (ip), vehicle: water) was 0 of 6.

For `CCCCCCCCCCCCSSSCCCCCCCCCCCC`, the survivor count [9] was 6 of 6 and the survivor count [10] was 6 of 6.

`CC(C)C(O)(C(=O)OCC1=CC[N+]2(C)CCC(O)C12)C(C)O` (stereo not drawn) was tested, and the survivor count (dose: 400.0 mg/kg/injection, schedule: Q01DX005 (ip), vehicle: water) was 1 of 3.

With `CC1=Nc2nc(=N)nc3cccc(n23)N1` the survivor count [4] was 1 of 6.

`CN(C)CCNc1ccc(N)c2sc3ccccc3c(=O)c12` was tested, and the survivor count [12] was 5 of 6 and the survivor count [13] was 0 of 6 and 2 of 6.

In the case of `O=C(O)c1cc(Br)cc(SSc2cc(Br)cc(C(=O)O)c2O)c1O`, the survivor count [12] is reported as 4 of 6 and the survivor count [13] is reported as 4 of 6.

In the case of `NC(=S)N/N=C\Cn1cc([N+](=O)[O-])c(=O)[nH]c1=O`, the survivor count [7] is reported as 6 of 6.

`CON/C=C(C#N)/C=C/C=Nc1ccc(S(=O)(=O)N=C(N)N)cc1` was tested, and the survivor count [12] was 6 of 6 and the survivor count [13] was 5 of 6.

`O=C1CCCCCC2=NC12` (stereo not drawn) was tested, and the T/C [5] was 129 [5 of 6 alive] and 137 % of control, the survivor count [6] was 2 of 6 and the survivor count [7] was 0 of 6.

`O=C(NP(=O)(N1CC1)N1CC1)c1cc(I)ccc1I` was tested, and the T/C (dose: 8.0 mg/kg/injection, schedule: Q01DX005 (ip), vehicle: suspension in saline) was 141 % of control, the T/C (dose: 32.0 mg/kg/injection, schedule: Q01DX005 (iv), vehicle: suspension in saline) was 128 % of control and the T/C (dose: 64.0 mg/kg/injection, schedule: Q01DX005 (iv), vehicle: suspension in saline) was 125 % of control.

For `Cc1cc(N/N=C/c2ccc(Cl)cc2)c2cc3c(cc2n1)OCO3`, the survivor count [6] was 4 of 6 and the survivor count [7] was 0 of 6.
